# Source: PubChem BioAssay AID588590 (National Center for Advancing Translational Sciences (NCATS), 2011)
# By UniProt entry, the sequences of proteins in these tests, tags left out. Where a name states a change or a piece, a line headed by the entry shows the natural chain unless it says otherwise.
# UniProt Q9UNA4: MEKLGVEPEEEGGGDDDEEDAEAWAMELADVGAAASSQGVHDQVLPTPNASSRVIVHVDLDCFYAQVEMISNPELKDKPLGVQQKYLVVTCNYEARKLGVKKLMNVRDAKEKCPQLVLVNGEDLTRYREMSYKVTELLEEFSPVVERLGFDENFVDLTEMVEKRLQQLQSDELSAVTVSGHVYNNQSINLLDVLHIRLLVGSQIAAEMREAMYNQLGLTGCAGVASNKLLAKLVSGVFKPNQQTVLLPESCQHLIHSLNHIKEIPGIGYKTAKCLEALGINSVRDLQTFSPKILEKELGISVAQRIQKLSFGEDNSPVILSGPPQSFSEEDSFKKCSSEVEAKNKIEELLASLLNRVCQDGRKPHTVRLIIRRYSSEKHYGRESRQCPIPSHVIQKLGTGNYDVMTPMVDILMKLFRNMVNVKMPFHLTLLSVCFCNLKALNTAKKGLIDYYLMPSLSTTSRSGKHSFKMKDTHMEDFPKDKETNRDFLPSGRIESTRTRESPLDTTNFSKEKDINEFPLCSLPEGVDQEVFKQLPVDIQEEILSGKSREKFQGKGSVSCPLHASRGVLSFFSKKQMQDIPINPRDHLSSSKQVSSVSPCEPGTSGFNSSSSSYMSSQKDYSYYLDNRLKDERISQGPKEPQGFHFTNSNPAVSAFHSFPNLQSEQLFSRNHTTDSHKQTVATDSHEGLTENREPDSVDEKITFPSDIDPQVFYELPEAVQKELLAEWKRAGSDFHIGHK
# Several values for one entry are separate records, joined by “and”; a condition that tells them apart may be missing. Equal entries are not always repeated. In all, about 390,000 compounds went through this assay and about 4,000 (1%) were called active. The inconclusive results got no clear call from the source; some entries with a clear call stand among them for comparison. Calls follow the shape of the dose curve; as a rule, active = well fitted inhibition curve with a large enough effect; inconclusive = small, poorly fitted or top-dose-only effect, or another doubt; inactive = no such curve, though single readings can be large or run the other way. Where the call is inconclusive, the potency comes from a doubtful curve fit.
# Molecular target: DNA polymerase iota (Homo sapiens) (UniProt Q9UNA4)
# Assay: qHTS for Inhibitors of Polymerase Iota
# Conditions: Pol iota fluorescent replication assay, 10 min; series mostly up to 115 µM; activity, negative = inhibition: at the top concentration
# Excerpt: DNA polymerases, such as Pol iota, are specifically involved in DNA repair. Pol iota specifically plays an important role in translesion synthesis, where the normal high-fidelity DNA polymerases cannot proceed and DNA synthesis stalls. […] Thus, while pol eta's (and most likely iota's) normal function is to protect humans against the deleterious consequences of DNA damage, under certain conditions they can have deleterious effects on human health. As a consequence, we propose to utilize a high throughput replication assay to identify small molecule inhibitors of pol iota.
# In a collaboration between the National Institute of Child Health & Human Development (NICHD) and NIH Chemical Genomics Center, a high-throughput, fluorescent screen was developed to screen the NIH Molecular Libraries Small Molecule Repository (MLSMR). This screen is used to identify inhibitors of pol iota.
# NIH Chemical Genomics Center [NCGC]
# NIH Molecular Libraries Probe Centers Network [MLPCN]
# Assay Submitter (PI): Roger Woodgate, NICHD)
# Three microliters of reagents (buffer in column 3 and 4 as negative control and 10 nM Pol iota in columns 1, 2, and 5-48) will be dispensed into 1,536-well black solid-bottomed plate. Compounds (23 nL) will be transferred via Kalypsys pin tool equipped with 1536-pin array. The plates will then be incubated for 15 min at room temperature, and 1 µL substrate (50 nM final concentration) will be added to start the reaction and kinetically read twice at 0 min and 10 min on the Viewlux reader.
# Potency is read from the fitted curve at half-maximal effect.
SMILES,"activity, negative = inhibition",Potency
O=C(Nc1cc(S(=O)(=O)N2CCOCC2)ccc1N1CCCC1)c1ccc2c(c1)S(=O)(=O)c1ccccc1C2=O,inactive: 49.1%,–
O=C(c1ccco1)N1CCN(C(=O)c2cc(-c3ccccn3)nc3ccc(Cl)cc23)CC1,–,"inconclusive: 1.41 µM [inhibitor, full curve, poor fit]"
C=CCN(C(=O)Nc1ccc2oc(C)nc2c1)c1ccccc1,–,"inconclusive: 39.8 µM [inhibitor, partial curve, poor fit]"
Cc1nnc2ccc(-c3ccc(NS(=O)(=O)c4ccccc4[N+](=O)[O-])cc3)nn12,–,"inconclusive: 50.1 µM [inhibitor, partial curve, poor fit]"
CCOc1ccc(NC(=S)NC(=O)/C=C/c2ccc(OC)c(OC)c2)c([N+](=O)[O-])c1,–,"inconclusive: 31.6 µM [inhibitor, partial curve, poor fit]"
COC(=O)c1ccc(CN(Cc2ccc(OC)c(OC)c2)S(=O)(=O)c2cc(C(=O)Nc3cccc(C)c3)ccc2F)cc1,inactive: 11.5%,–
CCS(=O)(=O)c1ccc2c(c1)N(S(C)(=O)=O)CC(C(=O)NCCOC)O2 (configuration not stated),–,"inconclusive: 39.8 µM [inhibitor, partial curve, poor fit]"
Cc1ccc(-c2cc(C(=O)Nc3ccc(S(=O)(=O)Nc4onc(C)c4C)cc3)c3ccccc3n2)cc1,inactive: 42.7%,–
Cc1ccc(-c2csc3ncn(CC(=O)N4CCOCC4)c(=O)c23)cc1C,–,"inconclusive: 31.6 µM [inhibitor, single point]"
CCC(CO)Oc1cc(NC(=O)c2ccc(N)cc2)c2ncn(C(C)C)c2c1 (configuration not stated),–,"inconclusive: 15.8 µM [inhibitor, full curve]"
N#C/C(=C\c1ccccc1)C(=O)NNS(=O)(=O)c1cccc([N+](=O)[O-])c1,–,"inconclusive: 31.6 µM [inhibitor, single point]"
CC(=O)Nc1cc(N=Cc2ccc(O)cc2O)c(Cl)cc1Cl,–,"inconclusive: 15.8 µM [inhibitor, full curve, poor fit]"
Cc1ccc(C(=O)Nc2ccc(N3CCN(C(=O)c4ccco4)CC3)cc2)c(Cl)c1,–,"inconclusive: 89.1 µM [inhibitor, partial curve, poor fit]"
C/C(=N\NC(=O)c1cccc([N+](=O)[O-])c1)c1ccco1,–,"inconclusive: 79.4 µM [inhibitor, partial curve]"
CC(=O)N1CCCc2cc(S(=O)(=O)N(CC(C)C)CC(C)C)ccc21,–,"inconclusive: 31.6 µM [inhibitor, single point]"
NC(=O)COC(=O)CC(NC(N)=O)c1ccc(Cl)cc1 (configuration not stated),–,"inconclusive: 89.1 µM [inhibitor, partial curve, poor fit]"
O=C1NCCCC1C(=O)Nc1ccccn1 (configuration not stated),–,"inconclusive: 22.4 µM [inhibitor, partial curve, poor fit]"
Cc1cccc(C)c1NC(=O)Cc1cccs1,–,"inconclusive: 39.8 µM [inhibitor, single point]"
CCC(=O)N1CCc2cc(S(=O)(=O)NC(Cc3ccccc3)C(=O)NCc3ccc(F)cc3)ccc21 (configuration not stated),inactive: 27.9%,–
Cc1ccccc1NC(=O)N1CCC(CN2CCCC2)CC1,inactive: 47.5%,–
O=C(c1ccccc1Nc1ccc(SC(F)F)cc1)N1CCCCC1,inactive: 1.25%,–

SMILES,"activity, negative = inhibition",Potency
O=C(NCc1ccc(OC(F)(F)F)cc1)C1CC2Cn3c(nc4ccccc43)C2N1c1ccccc1 (configuration not stated),–,"inconclusive: 15.8 µM [inhibitor, partial curve, poor fit]"
Cc1cc(C)nc(NS(=O)(=O)c2ccc(Br)s2)c1,–,"inconclusive: 14.1 µM [inhibitor, partial curve, poor fit]"
CCCCN(CC)c1nc(N)c(C#N)c(CC#N)c1C#N,inactive: 62.6%,–
COc1ccc(-n2nnnc2SCC(=O)NNC(=O)c2ccc([N+](=O)[O-])cc2)cc1,–,"inconclusive: 89.1 µM [inhibitor, partial curve]"
COc1ccc(OC)c(NC(=O)c2nc(SCc3ccccc3F)ncc2Cl)c1,–,inactive
COc1ccc2c(=O)cc(-c3ccccc3F)oc2c1,–,"inconclusive: 7.94 µM [inhibitor, full curve, poor fit]"
COc1ccccc1-n1c(SCC(=O)Nc2ccccc2C)nc(O)cc1=O,–,active: 56.2 µM
Cc1occc1C(=O)N/N=C/c1cccnc1,–,"inconclusive: 112 µM [inhibitor, single point]"
N#Cc1sc2nc(-c3ccccc3)cc(-c3ccco3)c2c1N,–,active: 0.794 µM
CCn1c(SCC(=O)NCc2ccco2)nc2c(c1=O)SC(C)C2 (configuration not stated),–,"inconclusive: 56.2 µM [inhibitor, partial curve, poor fit]"
Cc1nc2ccccc2c(C)c1CC(=O)N(C)CC(=O)Nc1cccc(F)c1,–,"inconclusive: 17.8 µM [inhibitor, single point]"
CCNC(=O)c1ccc(-n2c(-c3ccccc3)cc3c2CCCCC3)cc1,–,"inconclusive: 89.1 µM [inhibitor, single point]"
COc1cccc(-c2cc(C(=O)Nc3ccc(F)cc3)[nH]n2)c1,–,"inconclusive: 89.1 µM [inhibitor, single point]"
Cc1ccc(S(=O)(=O)N2CCOCC2)cc1C(=O)N1C(=O)c2cccc(N)c2C1=O,–,"inconclusive: 14.1 µM [inhibitor, full curve, poor fit]"
O=C(O)COc1ccccc1/C=C1\SC(=S)N(c2cccnc2)C1=O,–,"inconclusive: 44.7 µM [inhibitor, partial curve, poor fit]"
Cc1ccc(C(=O)NC2(O)C(=O)c3ccccc3C2=O)cc1C,–,active: 2 µM
COCCNC(=S)N/N=C/c1c2ccccc2cc2ccccc12,–,"inconclusive: 14.1 µM [inhibitor, partial curve, poor fit]"
COc1cc(NC(=O)CSc2ccc(-c3sc(-c4ccccc4)nc3C)nn2)cc(OC)c1,–,"inconclusive: 89.1 µM [inhibitor, single point]"
COC(=O)c1c(NC(=O)COc2ccc(OC)cc2)sc2c1CCC(C)C2 (configuration not stated),inactive: -16.7%,–
Oc1c(Br)cc(C=Nc2ccc3nc(-c4ccccc4)[nH]c3c2)c(O)c1Br,–,"inconclusive: 15.8 µM [inhibitor, full curve, poor fit]"
O=C(Nc1ccc(Cl)c(S(=O)(=O)N2CCOCC2)c1)c1ccccn1,–,"inconclusive: 89.1 µM [inhibitor, single point]"

SMILES,"activity, negative = inhibition",Potency
Cc1ccc(NC(=O)c2cccnc2C(=O)Nc2ccc(C)cc2)cc1,–,"inconclusive: 25.1 µM [inhibitor, partial curve, poor fit]"
Cn1nc(C(=O)Nc2ccc(-n3cnnn3)cc2)c2ccccc2c1=O,–,"inconclusive: 35.5 µM [inhibitor, partial curve, poor fit]"
CCOc1ccc(C(=O)Nc2ccc(-c3nc4ccccc4[nH]3)cc2)cc1[N+](=O)[O-],–,"inconclusive: 50.1 µM [inhibitor, partial curve, poor fit] and inconclusive: 17.8 µM [inhibitor, full curve, poor fit]"
CCOc1cc(/C=C2\COc3ccccc3C2=O)ccc1OCC(=O)N(C)C,–,"inconclusive: 31.6 µM [inhibitor, partial curve, poor fit]"
CCCN1CCN(C(=S)Nc2ccc(SC(F)F)cc2)CC1,–,"inconclusive: 4.47 µM [inhibitor, full curve, poor fit]"
CC1=C(C(=O)OCc2ccccc2)C(c2ccc(C)o2)C2=C(CCCC2=O)N1 (configuration not stated),–,"inconclusive: 3.16 µM [inhibitor, partial curve, poor fit]"
Nc1cc(=O)[nH]c(SCC(=O)N2N=C(c3ccc4ccccc4c3)CC2c2ccccc2)n1 (configuration not stated),–,active: 44.7 µM
COc1ccc(CN2CCN(S(=O)(=O)c3ccccc3)CC2)c(OC)c1,–,"inconclusive: 89.1 µM [inhibitor, single point]"
Cc1cc(C)n(/N=C/c2ccco2)c(=O)c1C#N,–,"inconclusive: 28.2 µM [inhibitor, partial curve, poor fit]"
Cc1ccc(NC(=S)NC(=O)C2CCCC2)c(Br)c1,inactive: 16.5%,–
CSc1nnc(-c2ccc(C(F)(F)F)nc2C)o1,inactive: 57.8%,–
CCOc1ncccc1C(=O)OCC(=O)c1c(N)n(C)c(=O)n(C)c1=O,–,"inconclusive: 89.1 µM [inhibitor, partial curve, poor fit]"
CSc1cccc(NC(=O)/C=C/c2ccco2)c1,–,"inconclusive: 4.47 µM [inhibitor, full curve, poor fit]"
CCOc1ccc(OCC(=O)c2c(O)c3ccccc3oc2=O)cc1,–,"inconclusive: 39.8 µM [inhibitor, single point]"
Cc1cc(Nc2cccc(O)c2)c2cccc(Br)c2n1,–,"inconclusive: 3.98 µM [inhibitor, partial curve, poor fit]"
C[C@]12C[C@H](O)C3[C@@H](CCC4=CC(=O)CC[C@@]43C)[C@@H]1CC[C@@H]2C(=O)CO (some centres not stated),inactive: 5.39% [at 58.9 µM],–
CC(C)n1c(=NC(=O)c2ccco2)c(C#N)cc2c(=O)n3ccccc3cc21,–,"inconclusive: 25.1 µM [inhibitor, partial curve, poor fit]"
Cc1noc(C)c1COc1ccc(C(=O)NCCOc2ccccc2)cc1,–,"inconclusive: 44.7 µM [inhibitor, partial curve, poor fit]"
O=c1[nH]c(SCc2cccc(Cl)c2)nc2c1CCCC2,–,"inconclusive: 79.4 µM [inhibitor, partial curve]"
Cn1cccc1/C=C1\SC(=Nc2cccc(O)c2)NC1=O,–,"inconclusive: 25.1 µM [inhibitor, full curve, poor fit]"

# Looked up above.
# Value for Cc1ccc(NC(=S)NC(=O)C2CCCC2)c(Br)c1 under activity, negative = inhibition: inactive: 16.5%
# Value for O=c1[nH]c(SCc2cccc(Cl)c2)nc2c1CCCC2 under Potency: inconclusive: 79.4 µM [inhibitor, partial curve]
